# Data from the supplement of paper PMC8728848.
# Some of the results follow.
# B1: PX9961KLbvu-535-38-535 (Bacteroides vulgatus) (protein)
# chain: DKAYTDAESYTKGLHKIYSVWALSGQDGSSSSDISGLDAGNTALLRCWWTLQEQPTDEMKNAWNDAWCTEVNYMTWTTNKVEPIEGVYQRCMYIVALVNEFLKNIPNAPESIDKESYIAQARFNRAFAYYVLMDMFALPPFITEKNYSIEPAPLSREDLFNWIEAELNEIKPNLPSPRSEYGVADQAVASALLARMYLNAEIYTGKARYTECINACNEVIKAGYQLADNYADLFKADNGENPDTKKEIIYPIIFDGDKTQSWGMAAIIIGARGAEDKDVLLAHSGVDQGWAGFRATSNLVHLFDFQNDEEPKASEIQDKRGIFYDKGRSIDITSSVSGTFETEGWSVFKFSNLNSNGQPGKNTLWVDTDFPMFRLGDIYLMYAEAVARGGEGSKASAVEYINALRKRAYGDDKHNISENWLEENNFRNLLDERGRELYWEGIRRTDLVRFDLLTSGSYTWDFKGGINTGVGVNKRYNVYPIPVTDLTVNGNLQQNEGY
# Key:
# Assay in all cases: glycan array binding signal (z-score within array); higher = stronger binding
# Details in all cases: glycan notation: IUPAC condensed, linker removed
# [1] = target: Neu5Ac(a2-3)Gal(b1-4)GlcNAc(b1-6)GalNAc
# In short: (§1)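 Columns mapping to the same glycan were averaged after glycan names were converted to IUPAC-condensed notation. The data come from 3228 arrays in the Consortium for Functional Glycomics database, limited to those with an available protein sequence. Binding is reported as a within-array Z-score averaged across arrays of one protein sequence and across linkers.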
# [2] = target: Neu5Ac(a2-3)Gal(b1-4)GlcNAc(b1-6)[Gal(b1-3)]GalNAc
# In short: as §1
# [3] = target: Neu5Ac(a2-3)Gal(b1-4)GlcNAc(b1-6)[Neu5Ac(a2-3)Gal(b1-3)]GalNAc
# In short: as §1
# [4] = target: Neu5Ac(a2-3)Gal(b1-4)GlcNAc6S
# In short: as §1
# [5] = target: Neu5Ac(a2-3)Gal(b1-4)[Fuc(a1-3)]GlcNAc
# In short: as §1
# [6] = target: Neu5Ac(a2-3)Gal(b1-4)[Fuc(a1-3)]GlcNAc(b1-2)Man
# In short: as §1
# [7] = target: Neu5Ac(a2-3)Gal(b1-4)[Fuc(a1-3)]GlcNAc(b1-3)Gal
# In short: as §1
# [8] = target: Neu5Ac(a2-3)Gal(b1-4)[Fuc(a1-3)]GlcNAc(b1-3)Gal(b1-4)GlcNAc
# In short: as §1
# [9] = target: Neu5Ac(a2-3)Gal(b1-4)[Fuc(a1-3)]GlcNAc(b1-3)Gal(b1-4)[Fuc(a1-3)]GlcNAc(b1-3)Gal(b1-4)[Fuc(a1-3)]GlcNAc
# In short: as §1
# [10] = target: Neu5Ac(a2-3)Gal(b1-4)[Fuc(a1-3)]GlcNAc(b1-3)GalNAc
# In short: as §1
# [11] = target: Neu5Ac(a2-3)Gal(b1-4)[Fuc(a1-3)]GlcNAc(b1-6)[Gal(b1-3)]GalNAc
# In short: as §1
# [12] = target: Neu5Ac(a2-3)Gal(b1-4)[Fuc(a1-3)]GlcNAc(b1-6)[Neu5Ac(a2-3)Gal(b1-3)]GalNAc
# In short: as §1
# [13] = target: Neu5Ac(a2-3)Gal(b1-4)[Fuc(a1-3)]GlcNAc6S
# In short: as §1
# [14] = target: Neu5Ac(a2-3)Gal6S(b1-4)GlcNAc
# In short: as §1
# [15] = target: Neu5Ac(a2-3)Gal6S(b1-4)[Fuc(a1-3)]GlcNAc
# In short: as §1
# Neu5Ac(a2-3)GalNAc = target: Neu5Ac(a2-3)GalNAc
# In short: as §1
# [16] = target: Neu5Ac(a2-3)GalNAc(b1-4)GlcNAc
# In short: as §1
# [17] = target: Neu5Ac(a2-3)[GalNAc(b1-4)]Gal(b1-4)Glc
# In short: as §1
# [18] = target: Neu5Ac(a2-3)[GalNAc(b1-4)]Gal(b1-4)GlcNAc
# In short: as §1
# [19] = target: Neu5Ac(a2-3)[GalNAc(b1-4)]Gal(b1-4)GlcNAc(b1-3)GalNAc
# In short: as §1
# [20] = target: Neu5Ac(a2-3)[Neu5Ac(a2-6)]GalNAc
# In short: as §1
# Neu5Ac(a2-6)Gal = target: Neu5Ac(a2-6)Gal
# In short: as §1
# [21] = target: Neu5Ac(a2-6)Gal(b1-3)GlcNAc(b1-3)[Gal(b1-4)GlcNAc(b1-6)]Gal(b1-4)Glc
# In short: as §1
# Neu5Ac(a2-6)Gal(b1-4)Glc = target: Neu5Ac(a2-6)Gal(b1-4)Glc
# In short: as §1
# [22] = target: Neu5Ac(a2-6)Gal(b1-4)GlcNAc
# In short: as §1
# [23] = target: Neu5Ac(a2-6)Gal(b1-4)GlcNAc(b1-2)Man
# In short: as §1
# [24] = target: Neu5Ac(a2-6)Gal(b1-4)GlcNAc(b1-2)Man(a1-3)Man(b1-4)GlcNAc(b1-4)GlcNAc
# In short: as §1
# [25] = target: Neu5Ac(a2-6)Gal(b1-4)GlcNAc(b1-2)Man(a1-3)[Gal(b1-4)GlcNAc(b1-2)Man(a1-6)]Man(b1-4)GlcNAc(b1-4)GlcNAc
# In short: as §1
# [26] = target: Neu5Ac(a2-6)Gal(b1-4)GlcNAc(b1-2)Man(a1-3)[GlcNAc(b1-2)Man(a1-6)]Man(b1-4)GlcNAc(b1-4)GlcNAc
# In short: as §1
# [27] = target: Neu5Ac(a2-6)Gal(b1-4)GlcNAc(b1-2)Man(a1-3)[GlcNAc(b1-4)][Neu5Ac(a2-6)Gal(b1-4)GlcNAc(b1-2)Man(a1-6)]Man(b1-4)GlcNAc(b1-4)GlcNAc
# In short: as §1
# [28] = target: Neu5Ac(a2-6)Gal(b1-4)GlcNAc(b1-2)Man(a1-3)[Man(a1-6)]Man(b1-4)GlcNAc(b1-4)GlcNAc
# In short: as §1
# [29] = target: Neu5Ac(a2-6)Gal(b1-4)GlcNAc(b1-2)Man(a1-3)[Neu5Ac(a2-3)Gal(b1-4)GlcNAc(b1-2)Man(a1-6)]Man(b1-4)GlcNAc(b1-4)GlcNAc
# In short: as §1
# [30] = target: Neu5Ac(a2-6)Gal(b1-4)GlcNAc(b1-2)Man(a1-3)[Neu5Ac(a2-6)Gal(b1-4)GlcNAc(b1-2)Man(a1-6)]Man(b1-4)GlcNAc(b1-4)GlcNAc
# In short: as §1
# [31] = target: Neu5Ac(a2-6)Gal(b1-4)GlcNAc(b1-2)Man(a1-3)[Neu5Ac(a2-6)Gal(b1-4)GlcNAc(b1-2)Man(a1-6)]Man(b1-4)GlcNAc(b1-4)[Fuc(a1-6)]GlcNAc
# In short: as §1
# [32] = target: Neu5Ac(a2-6)Gal(b1-4)GlcNAc(b1-2)Man(a1-6)Man(b1-4)GlcNAc(b1-4)GlcNAc
# In short: as §1
# [33] = target: Neu5Ac(a2-6)Gal(b1-4)GlcNAc(b1-2)Man(a1-6)[Gal(b1-4)GlcNAc(b1-2)Man(a1-3)]Man(b1-4)GlcNAc(b1-4)GlcNAc
# In short: as §1
# [34] = target: Neu5Ac(a2-6)Gal(b1-4)GlcNAc(b1-2)Man(a1-6)[GlcNAc(b1-2)Man(a1-3)]Man(b1-4)GlcNAc(b1-4)GlcNAc
# In short: as §1
# [35] = target: Neu5Ac(a2-6)Gal(b1-4)GlcNAc(b1-2)Man(a1-6)[Man(a1-3)]Man(b1-4)GlcNAc(b1-4)GlcNAc
# In short: as §1
# [36] = target: Neu5Ac(a2-6)Gal(b1-4)GlcNAc(b1-2)[Neu5Ac(a2-6)Gal(b1-4)GlcNAc(b1-4)]Man(a1-3)[GlcNAc(b1-4)][Neu5Ac(a2-6)Gal(b1-4)GlcNAc(b1-2)[Neu5Ac(a2-6)Gal(b1-4)GlcNAc(b1-6)]Man(a1-6)]Man(b1-4)GlcNAc(b1-4)GlcNAc
# In short: as §1
# [37] = target: Neu5Ac(a2-6)Gal(b1-4)GlcNAc(b1-2)[Neu5Ac(a2-6)Gal(b1-4)GlcNAc(b1-4)]Man(a1-3)[GlcNAc(b1-4)][Neu5Ac(a2-6)Gal(b1-4)GlcNAc(b1-4)Man(a1-6)]Man(b1-4)GlcNAc(b1-4)GlcNAc
# In short: as §1
# [38] = target: Neu5Ac(a2-6)Gal(b1-4)GlcNAc(b1-2)[Neu5Ac(a2-6)Gal(b1-4)GlcNAc(b1-6)]Man(a1-6)[Neu5Ac(a2-6)Gal(b1-4)GlcNAc(b1-2)Man(a1-3)][GlcNAc(b1-4)]Man(b1-4)GlcNAc(b1-4)GlcNAc
# In short: as §1
# [39] = target: Neu5Ac(a2-6)Gal(b1-4)GlcNAc(b1-3)Gal(b1-3)GlcNAc
# In short: as §1
# [40] = target: Neu5Ac(a2-6)Gal(b1-4)GlcNAc(b1-3)Gal(b1-4)GlcNAc
# In short: as §1
# [41] = target: Neu5Ac(a2-6)Gal(b1-4)GlcNAc(b1-3)Gal(b1-4)GlcNAc(b1-2)Man(a1-3)[Neu5Ac(a2-6)Gal(b1-4)GlcNAc(b1-3)Gal(b1-4)GlcNAc(b1-2)Man(a1-6)]GalNAc
# In short: as §1
# [42] = target: Neu5Ac(a2-6)Gal(b1-4)GlcNAc(b1-3)Gal(b1-4)GlcNAc(b1-3)Gal(b1-4)GlcNAc
# In short: as §1
# [43] = target: Neu5Ac(a2-6)Gal(b1-4)GlcNAc(b1-3)Gal(b1-4)GlcNAc(b1-3)Gal(b1-4)GlcNAc(b1-2)Man(a1-3)[Neu5Ac(a2-6)Gal(b1-4)GlcNAc(b1-3)Gal(b1-4)GlcNAc(b1-3)Gal(b1-4)GlcNAc(b1-2)Man(a1-6)]GalNAc
# In short: as §1
binder,measurement,setting,value
B1,glycan array binding signal (z-score),[1],-0.266
same,glycan array binding signal (z-score),[2],0.057
same,glycan array binding signal (z-score),[3],-0.02
same,glycan array binding signal (z-score),[4],-0.381
same,glycan array binding signal (z-score),[5],-0.6
same,glycan array binding signal (z-score),[6],-0.352
same,glycan array binding signal (z-score),[7],-0.615
same,glycan array binding signal (z-score),[8],0.02
same,glycan array binding signal (z-score),[9],0.023
same,glycan array binding signal (z-score),[10],0.19
same,glycan array binding signal (z-score),[11],0.27
same,glycan array binding signal (z-score),[12],1.17
same,glycan array binding signal (z-score),[13],-0.73
same,glycan array binding signal (z-score),[14],-0.013
same,glycan array binding signal (z-score),[15],0.772
same,glycan array binding signal (z-score),Neu5Ac(a2-3)GalNAc,-0.201
same,glycan array binding signal (z-score),[16],-0.32
same,glycan array binding signal (z-score),[17],-0.237
same,glycan array binding signal (z-score),[18],-0.183
same,glycan array binding signal (z-score),[19],-0.004
same,glycan array binding signal (z-score),[20],0.241
same,glycan array binding signal (z-score),Neu5Ac(a2-6)Gal,0.181
same,glycan array binding signal (z-score),[21],0.302
same,glycan array binding signal (z-score),Neu5Ac(a2-6)Gal(b1-4)Glc,-0.86
same,glycan array binding signal (z-score),[22],-0.009
same,glycan array binding signal (z-score),[23],0.331
same,glycan array binding signal (z-score),[24],0.228
same,glycan array binding signal (z-score),[25],-0.384
same,glycan array binding signal (z-score),[26],-0.663
same,glycan array binding signal (z-score),[27],0.55
same,glycan array binding signal (z-score),[28],-0.575
same,glycan array binding signal (z-score),[29],0.103
same,glycan array binding signal (z-score),[30],-0.052
same,glycan array binding signal (z-score),[31],0.258
same,glycan array binding signal (z-score),[32],-0.118
same,glycan array binding signal (z-score),[33],-0.997
same,glycan array binding signal (z-score),[34],0.537
same,glycan array binding signal (z-score),[35],-0.19
same,glycan array binding signal (z-score),[36],0.412
same,glycan array binding signal (z-score),[37],-0.277
same,glycan array binding signal (z-score),[38],-0.019
same,glycan array binding signal (z-score),[39],0.768
same,glycan array binding signal (z-score),[40],0.42
same,glycan array binding signal (z-score),[41],0.776
same,glycan array binding signal (z-score),[42],-0.49
same,glycan array binding signal (z-score),[43],1.25

# A different layout for part of the listing above:
binder	measurement	setting	value
B1	glycan array binding signal (z-score)	[3]	-0.02
same	glycan array binding signal (z-score)	[4]	-0.381
